Laboratory results published in publication PMC4395342.
These are yes or no findings as the source states them, for the method shown. In cells and extracts the contact can be indirect. Some results given as binding are weak or reduced against the parent protein; the word gives no strength.

Sequences of proteins named here, by UniProt entry; tags and fusion partners are left off. Residues count along the entry.
UniProt Q9NTX7, residues 92-168: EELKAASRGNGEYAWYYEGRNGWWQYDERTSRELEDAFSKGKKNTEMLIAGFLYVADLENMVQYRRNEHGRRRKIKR

Molecular target: GST fused to the WWE domain of the E3 ubiquitin ligase RNF146 (UniProt Q9NTX7)
Assay: pull-down; GST-WWE resins (15-20 μg) incubated 6-14 hr with soluble cell lysates supplemented with 0.1% SDS, ADP-ribose and ADP-HPD; cells treated with 3-17 mM glucose for 1 or 7 hr; precipitates blotted for TNKS; only the target purified

- binding: binds
B1: PARsylated tankyrase (TNKS), endogenous in MIN6 cells (protein, UniProt Q6PFX9 1-1320)
chain: MAASRRSQHHHHHHQQQLQPAPGASAPPPPPPPPLSPGLAPGPTPASPTAGGLAPFASPRHGLALPEGDGSRDPPDRPRSPDPVDGAVCTVAAPAAVPAASAAVGVAPTPAGGGGGGGNNSASSASSPTSSSSSSPSSPGSSLAESPEAAGVGSTATLGAGAAGLGPGVPAVSGALRELLEACRNGDVSRVKRLVDAANVNAKDMAGRKSSPLHFAAGFGRKDVVEHLLQMGANVHARDDGGLIPLHNACSFGHAEVVSLLLCQGADPNARDNWNYTPLHEAAIKGKIDVCIVLLQHGADPNIRNTDGKSALDLADPSAKAVLTGEYKKDELLEAARSGNEEKLMALLTPLNVNCHASDGRKSTPLHLAAGYNRVRIVQLLLQHGADVHAKDKGGLVPLHNACSYGHYEVTELLLKHGACVNAMDLWQFTPLHEAASKNRVEVCSLLLSHGADPTLVNCHGKSAVDMAPTPELRERLTYEFKGHSLLQAAREADLAKVKKTLALEIINFKQPQSHETALHCAVASLHPKRKQVAELLLRKGANVNEKNKDFMTPLHVAAERAHNDVMEVLHKHGAKMNALDSLGQTALHRAALAGHLQTCRLLLSYGSDPSIISLQGFTAAQMGNEAVQQILSESTPMRTSDVDYRLLEASKAGDLETVKQLCSPQNVNCRDLEGRHSTPLHFAAGYNRVSVVEYLLHHGADVHAKDKGGLVPLHNACSYGHYEVAELLVRHGASVNVADLWKFTPLHEAAAKGKYEICKLLLKHGADPTKKNRDGNTPLDLVKEGDTDIQDLLRGDAALLDAAKKGCLARVQKLCTPENINCRDTQGRNSTPLHLAAGYNNLEVAEYLLEHGADVNAQDKGGLIPLHNAASYGHVDIAALLIKYNTCVNATDKWAFTPLHEAAQKGRTQLCALLLAHGADPTMKNQEGQTPLDLATADDIRALLIDAMPPEALPTCFKPQATVVSASLISPASTPSCLSAASSIDNLTGPLTDLAVGGASNAGDGAAGAERKEGEVAGLDMNISQFLKSLGLEHLRDIFETEQITLDVLADMGHEELKEIGINAYGHRHKLIKGVERLLGGQQGTNPYLTFHCVNQGTILLDLAPEDKEYQSVEEEMQSTIREHRDGGNAGGIFNRYNVIRIQKVVNKKLRERFCHRQKEVSEENHNHHNERMLFHGSPFINAIIHKGFDERHAYIGGMFGAGIYFAENSSKSNQYVYGIGGGTGCPTHKDRSCYICHRQMLFCRVTLGKSFLQFSTMKMAHAPPGHHSVIGRPSVNGLAYAEYVIYRGEQAYPEYLITYQIMKPEAPSQTATAAEQKT
modifications: poly-ADP-ribosylated (autoPARsylation), sites not stated
